Screen size: about 390,000 compounds; about 4,000 (1%) were called active. The shares of active, inactive and inconclusive entries below differ from those in the screen. Calls follow the shape of the dose curve; as a rule, active = well fitted inhibition curve with a large enough effect; inconclusive = small, poorly fitted or top-dose-only effect, or another doubt; inactive = no such curve, though single readings can be large or run the other way. A potency beside an inconclusive call is a rough fit, not a confirmed value.
molecular target: DNA polymerase iota (Homo sapiens) (UniProt Q9UNA4); experiment: qHTS for Inhibitors of Polymerase Iota; settings: Pol iota fluorescent replication assay, 10 min; series mostly up to 115 µM; activity, negative = inhibition: at the top concentration
In short: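 Pol iota at 10 nM preincubated 15 min with compounds at room temperature; reaction started with fluorescent substrate, 50 nM final. Fluorescence read kinetically at 0 and 10 min; buffer-only wells as negative control.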
Potency is read from the fitted curve at half-maximal effect.

Chains of the proteins cited; added tags and fusions are not shown. Lines headed by an entry give the natural chain unless they say otherwise; changes in a name come on top.
UniProt Q9UNA4: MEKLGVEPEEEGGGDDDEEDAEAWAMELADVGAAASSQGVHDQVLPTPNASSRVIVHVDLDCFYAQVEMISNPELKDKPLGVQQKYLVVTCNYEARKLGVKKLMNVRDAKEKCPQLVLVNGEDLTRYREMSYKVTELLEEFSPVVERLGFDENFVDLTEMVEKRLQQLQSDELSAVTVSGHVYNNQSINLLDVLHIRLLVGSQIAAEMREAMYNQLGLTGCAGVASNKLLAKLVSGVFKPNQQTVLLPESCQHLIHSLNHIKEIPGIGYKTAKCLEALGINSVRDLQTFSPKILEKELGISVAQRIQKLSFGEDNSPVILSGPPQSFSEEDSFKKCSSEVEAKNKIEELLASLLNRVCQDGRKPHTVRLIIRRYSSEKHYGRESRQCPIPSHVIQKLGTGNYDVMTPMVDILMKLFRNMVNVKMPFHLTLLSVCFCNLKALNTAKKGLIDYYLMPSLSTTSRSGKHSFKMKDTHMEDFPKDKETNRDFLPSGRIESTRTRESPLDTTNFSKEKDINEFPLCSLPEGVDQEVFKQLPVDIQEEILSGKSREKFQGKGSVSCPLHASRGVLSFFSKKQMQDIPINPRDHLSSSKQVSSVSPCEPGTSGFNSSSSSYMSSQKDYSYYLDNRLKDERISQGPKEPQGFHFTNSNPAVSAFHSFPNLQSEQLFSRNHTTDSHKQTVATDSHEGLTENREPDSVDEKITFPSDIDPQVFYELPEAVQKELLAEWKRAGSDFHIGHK

activity, negative = inhibition, inactive:
O=C(Nc1cccc(F)c1)C1CCCN1C(=O)OCc1ccccc1 (configuration not stated) -11.7%, CCCCN1C[C@H](COC(=O)CCC)Oc2cccc(F)c2S1(=O)=O 19.6%, O=S(=O)(N/N=C1/CC(c2ccccc2)Oc2ccccc21)c1ccccc1 (configuration not stated) -14.8%, Cc1ccc(S(=O)(=O)N2CCN(C(=O)CN(Cc3ccco3)Cc3cccs3)CC2)cc1 13.5%, COc1ccccc1-c1nnc(SC(C)C(=O)Nc2ccc(C(N)=O)cc2)o1 (configuration not stated) 28.8%, COc1cc(/C=C2\C=CC(=O)O2)cc(OC)c1 51.1%, CC(=O)Nc1nonc1-c1nnc(SCc2ccccc2Cl)n1C 21.4%, CN1CCN(C(=O)c2ccc3c(=O)n(-c4ccc(F)cc4)c(=S)[nH]c3c2)CC1 131%, CC(C)c1ccc(NC(=O)Cn2c(=O)oc3cc(S(=O)(=O)N4CCCC4)ccc32)cc1 1.67%, Cc1noc2ncnc(N3CCCC(C(=O)Nc4cccc(C(F)(F)F)c4)C3)c12 (configuration not stated) 30.5%, c1ccc(-c2nc(-c3ccccn3)no2)cc1 25.6%, CSCCC(NS(=O)(=O)c1ccc(C)cc1C)C(=O)Nc1cccnc1 (configuration not stated) 61.5%, CC(C)c1ccc(NC(=O)C(Cc2ccccc2)NS(=O)(=O)c2ccc3c(c2)oc(=O)n3C)cc1 (configuration not stated) 0.722%, O=C(NC1CC(=O)N(c2ccccc2)C1)c1ccc(S(=O)(=O)N2CCCC2)cc1 (configuration not stated) 11.5%, COC(=O)c1ccc(/C=N/NC(=O)c2ccc3nc[nH]c3c2)cc1 21%, COn1c(=O)c(=O)n(O)c2ccccc21 -3.45%, COc1ccc(CNC(=O)C2CCN(S(=O)(=O)c3ccc4c(ccn4C)c3)CC2)cc1 23.3%, Cc1ccc(C(=O)O)cc1NC(=S)NC(=O)c1ccc(-c2ccc(Cl)cc2)o1 -9.31%, C/C(CC(C)C)=N\Nc1ccc(S(N)(=O)=O)cc1[N+](=O)[O-] 36.4%, CCn1ccc(C(=O)NC2C(=O)N3C(C(=O)O)=C(C)CSC23)n1 (configuration not stated) -10%, O=C(CSc1nc2ccccc2nc1Cc1ccccc1)N1CCCc2ccccc21 -1.95%, CC(C)(C)C(=O)CN1C(=O)NC(c2ccccc2)(c2ccccc2)C1=O 14.8%, CCOC(=O)c1c(C)oc2nc(C)nc(Nc3cc(C)ccc3OC)c12 15.8%, N#Cc1ccc(C(=O)N(Cc2ccccc2)c2ccccc2)cc1 34.6%

Potency, inconclusive:
CC(=O)CCc1ccc(OCC(=O)Nc2cccc(S(=O)(=O)N(C)c3ccccc3)c2)cc1 14.1 µM [inhibitor, partial curve, poor fit], Cc1cc(=O)[nH]c2ccc(S(=O)(=O)NC3CCCCC3)cc12 89.1 µM [inhibitor, single point], CCNC(=O)COc1ccc(Br)cc1Cl 17.8 µM [inhibitor, partial curve, poor fit], Cc1ccc(C(=O)NC(=C(Cl)Cl)S(=O)(=O)c2ccc(Cl)cc2)cc1 10 µM [inhibitor, full curve, poor fit], C#CCOCCOCCOCCNc1nc(N2CCN(C(=O)C([C@@H](C)CC)n3cc(C(N)COC(=O)C(F)(F)F)nn3)CC2)nc(N2CCN(C(=O)[C@H](CCCCN)n3cc(C(N)[C@H](C)CC)nn3)CC2)n1 (some centres not stated) 25.1 µM [inhibitor, partial curve], COc1ccc(NC(=O)CCCS(=O)(=O)c2nc(-c3ccc(OC)c(OC)c3)cc(C(F)(F)F)n2)cc1OC 12.6 µM [inhibitor, partial curve, poor fit], Oc1ccc(Cl)cc1CNCc1ccc(F)cc1 89.1 µM [inhibitor, single point], COc1ccc(-c2nn(-c3ccccc3)cc2/C=C(\CC(=O)O)c2nc3ccccc3s2)cc1OC 39.8 µM [inhibitor, single point], COc1ccc(C2CC(=O)N3CN(C4CCCCC4)CSC3=C2C#N)cc1 (configuration not stated) 8.91 µM [inhibitor, partial curve, poor fit], COc1cc(/C=C2\C(=O)ON=C2c2ccc(Cl)cc2)ccc1O 20 µM [inhibitor, single point], CC(C)C(C)N(Cc1ccc(C(=O)O)cc1)C(=O)c1ccc2ccccc2n1 (configuration not stated) 44.7 µM [inhibitor, partial curve, poor fit], Cc1ccc(-n2nnnc2SCc2nnc(-c3ccccc3Br)o2)cc1 31.6 µM [inhibitor, full curve], O=C(CCc1nc2sc3c(c2c(=O)[nH]1)CCCC3)NCCc1ccc(F)cc1 79.4 µM [inhibitor, single point], Cc1ccc(-c2cc(C(=O)Nc3cccnc3)c3ccccc3n2)o1 100 µM [inhibitor, partial curve, poor fit], CC(NC(=O)C1(C)CC1(Br)Br)C(C)(C)C (configuration not stated) 89.1 µM [inhibitor, single point], COCCn1cnc2c1c(=O)[nH]c(=O)n2Cc1ccccc1 0.562 µM [inhibitor, full curve, poor fit], CC(=O)Nc1ccc(OC(=O)CC2SC(=O)NC2=O)cc1 (configuration not stated) 35.5 µM [inhibitor, partial curve, poor fit], O=C(/C=C/c1ccc2ccccc2n1)N1CCN(S(=O)(=O)c2ccc(F)cc2)CC1 56.2 µM [inhibitor, single point], COC(=O)c1ccccc1OCCOc1ccccc1C(=O)OC 100 µM [inhibitor, single point], O=C(OCc1nc2ccccc2s1)c1ccc(Br)o1 56.2 µM [inhibitor, partial curve, poor fit], O=C(Cc1ccc(Cl)cc1)Nc1ccc(-c2nnc(-c3ccco3)o2)cc1 22.4 µM [inhibitor, single point], O=C(N/N=C/c1ccccc1)c1ccc(CN2C(=O)c3cccc4cccc2c34)cc1 20 µM [inhibitor, partial curve, poor fit], CCC(=O)N(Cc1ccco1)c1nc(C(=O)Nc2ccc(Cl)cc2)c(C)s1 35.5 µM [inhibitor, partial curve, poor fit], Cc1ccc(-n2[nH]c(C)c(C=Nc3ccc(C)cn3)c2=O)cc1 39.8 µM [inhibitor, single point], Cn1ncc(C#N)c1/N=C/N(Cc1ccccc1)Cc1ccccc1 2.82 µM [inhibitor, partial curve, poor fit], Cc1cc(C)c2c(-n3cccc3)c(C(=O)NCC(C)c3ccccc3)sc2n1 (configuration not stated) 79.4 µM [inhibitor, single point], COc1ccc(CN2CCN(S(=O)(=O)c3ccc(NC(C)=O)cc3)CC2)c(OC)c1OC 56.2 µM [inhibitor, single point], Cc1cc(C(=O)Nc2sc3c(c2C#N)CCCC3)no1 100 µM [inhibitor, partial curve, poor fit], CCN(Cc1ccccc1)C(=O)CCS(=O)(=O)c1ccc2c(c1)CCN2C(C)=O 56.2 µM [inhibitor, partial curve, poor fit], O=C(Cn1ncc2c3ccccc3n(Cc3cccc(Cl)c3)c2c1=O)N1CCCCCC1 79.4 µM [inhibitor, single point], CCOc1ccc(/C=N/n2c(C3CCCCC3)n[nH]c2=S)cc1 5.62 µM [inhibitor, full curve, poor fit], O=C(/C=C/c1ccnc2ccccc12)c1cccs1 31.6 µM [inhibitor, partial curve, poor fit], Cc1ccc2c(c1)[C@H]1[C@H](CO2)[C@H](c2ccccc2)[C@]2(C)C(=O)N(Cc3ccco3)CC(=O)N12 39.8 µM [inhibitor, full curve, poor fit], Cc1ccccc1NC(NC(=O)c1cccs1)C(Cl)(Cl)Cl (configuration not stated) 0.891 µM [inhibitor, full curve, poor fit], COc1cccc(-c2csc3nnc(SCC(=O)c4ccc(NC(C)=O)cc4)n23)c1 89.1 µM [inhibitor, partial curve, poor fit], COc1cc(C(=O)Nc2ccc(S(=O)(=O)N3CCc4ccccc43)cc2)cc(OC)c1OC 50.1 µM [inhibitor, partial curve, poor fit], CC(C)OCCCNC(=O)c1c(N)n(/N=C/c2ccccn2)c2nc3ccccc3nc12 22.4 µM [inhibitor, partial curve, poor fit], Cc1cc(OCC(=O)N2CCN(c3ccccc3)CC2)c2c(C)cc(=O)oc2c1 89.1 µM [inhibitor, single point], COc1ccc(N2CCN(CC(=O)Nc3nnc(-c4ccccc4)s3)CC2)cc1 15.8 µM [inhibitor, partial curve, poor fit], Cc1ccc2oc(=O)c3cnn(CC(=O)NC4CCCCC4C)c3c2c1 (configuration not stated) 89.1 µM [inhibitor, single point]

Potency, active:
Nc1nc(SCC(=O)N2N=C3/C(=C\c4ccco4)CCCC3C2c2ccco2)n[nH]1 (configuration not stated) 39.8 µM, CCc1ccc(NC(=O)C2CCN(S(=O)(=O)c3ccc4c(c3)NC(=O)C(C)S4)CC2)cc1 (configuration not stated) 79.4 µM, CCc1ccc(NC(=O)CC2C(=O)N(c3ccc(Cl)cc3)C(=O)N2C2CCCC2)cc1 (configuration not stated) 89.1 µM

— PubChem BioAssay AID588590 (National Center for Advancing Translational Sciences (NCATS), 2011)
